According to US5639868:
Construct, isoform or probe ends are uncertain for at least one entry.

By UniProt entry, the sequences of proteins in these tests, tags left out. Residues count along the entry.
UniProt P09038, 135-288: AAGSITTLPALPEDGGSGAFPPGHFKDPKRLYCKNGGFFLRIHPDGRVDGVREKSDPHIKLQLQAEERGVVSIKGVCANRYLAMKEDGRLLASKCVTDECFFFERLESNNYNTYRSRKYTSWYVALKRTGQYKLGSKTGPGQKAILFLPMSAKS

Target: basic fibroblast growth factor (bFGF, FGF-2) (UniProt P09038)
Assay: inhibition of the protein
Settings: 2'-NH2 at all C and U, purified recombinant protein, protein details: Bachem California, 18 kDa, 154 amino acids, dose not given here

Sequence | functional effect of the aptamer (inhibits 125I-bFGF binding to receptors on BHK cells, also reduced bFGF-induced rat corneal vascular ingrowth (Table X: day 7 972 to 623, day 14 1528 to 900)) | functional effect of the aptamer (most effective inhibitor of 125I-bFGF binding to low- and high-affinity receptors, BHK cells, variant of 2'-NH2 21A)
GGGAGACAAGAAUAACGCUCAAGUAGACUAAUGUGUGGAAGACAGCGGGUGGUUCGACAGGAGGCUCACAACAGGC [2'-NH2 21A] | active | 
GGUGUGUGGAAGACAGCGGGUGGUUC [2'-NH2 21A-t] |  | active
